Some of the results follow.
Each sequence was assayed against T1, OsSMF1 (Oryza sativa, UniProt Q6ZLB0 1-436) (assay: protein-binding microarray (RPBM); PBS, 2% BSA, 51.3 ng/ul salmon testes DNA, 50 uM zinc acetate, 200 nM TF, 25 C, 1 h; high values mean tight binding). Details: protein: recombinant; tags: N-terminal polyhistidine and DsRed monomer fusion (pET32a); chain copies: 2; label: CyDye5-dUTP incorporated in the synthesized complementary strand; 3' TTTTT single-stranded linker to array surface; dsDNA, one strand shown.
T1 sequence: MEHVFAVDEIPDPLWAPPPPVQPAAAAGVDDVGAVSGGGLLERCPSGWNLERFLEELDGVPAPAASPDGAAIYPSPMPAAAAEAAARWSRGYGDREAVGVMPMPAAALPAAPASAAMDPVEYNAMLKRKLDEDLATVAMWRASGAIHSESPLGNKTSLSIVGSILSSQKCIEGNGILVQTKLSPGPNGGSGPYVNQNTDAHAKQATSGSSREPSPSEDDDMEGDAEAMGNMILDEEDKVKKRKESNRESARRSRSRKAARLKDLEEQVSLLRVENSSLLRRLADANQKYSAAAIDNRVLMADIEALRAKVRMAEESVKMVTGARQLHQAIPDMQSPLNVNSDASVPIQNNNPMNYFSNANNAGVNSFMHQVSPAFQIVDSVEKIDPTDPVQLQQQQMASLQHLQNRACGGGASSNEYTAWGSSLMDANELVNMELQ
In short: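 Binding signal is reported as fluorescence intensity per feature (arbitrary units) from an Axon 4000B scanner. Incubation used 200 nM of each Ni–NTA-purified, N-terminally polyhistidine- and DsRed-fused transcription factor from E. coli BL21-CodonPlus on a double-stranded custom Agilent array for 1 h at 25 °C, with 50 µM zinc acetate in the buffer, followed by washing.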

Q: For “AAATTCACTGCAAGTACTAATGCAGTGCAGCCGTACGAACCGGAGTCACCTAGTGCAG”, which binding signal is on record?
A: The binding signal was 20600 fluorescence intensity (a.u.).

Q: How did the binding signal turn out when “CCCAATTCGAGGCGCGCGATTCGCTCGCTCGGTTTTCCATCGGAGTCACCTAGTGCAG” was run?
A: The binding signal was 3360 fluorescence intensity (a.u.).

Q: Which binding signal does the source give for “TTACGCTACGTGCGCCCCATCTGGGAGGGGTGCCACGTGGCGGAGTCACCTAGTGCAG” here?
A: The binding signal was 29400 fluorescence intensity (a.u.).

Q: “ACAAATAAGCCATGTTAATTTGAGTCAACTGACTAATGCGCGGAGTCACCTAGTGCAG” was tested. Which binding signal did it give?
A: The binding signal was 3910 fluorescence intensity (a.u.).

Q: Which binding signal does the source give for “AGCTTCATTGACGCCATTCGCGACCGGCCGCCGCCCTCGCCGGAGTCACCTAGTGCAG” here?
A: The binding signal was 3470 fluorescence intensity (a.u.).

Q: With “CTTGGCTGTTCTTGGGTGGGTGAGGTGGGGCGGTCGGATCCGGAGTCACCTAGTGCAG” as the sequence, how does the binding signal read?
A: The binding signal was 6160 fluorescence intensity (a.u.).

Q: “CAGGTGAGGATGTTGCCAGCGTGCATGTCGGCGTTGGCCACGGAGTCACCTAGTGCAG” was tested. Which binding signal did it give?
A: The binding signal was 3300 fluorescence intensity (a.u.).

Q: For “TTAAACCCAGAGATGTTTTGTAGCTAGCGTGACACAAACTCGGAGTCACCTAGTGCAG”, which binding signal is on record?
A: Its binding signal is 4070 fluorescence intensity (a.u.).

Q: With “GACGAACGGTCAAACGTTGGACACGGAAACCAGGTTTGTCCGGAGTCACCTAGTGCAG” as the sequence, how does the binding signal read?
A: The binding signal was 3460 fluorescence intensity (a.u.).

Q: Which binding signal does the source give for “CAAGGTTCCCAAGTACATCATCCTAGGCTCCATTCGAGCTCGGAGTCACCTAGTGCAG” here?
A: Its binding signal is 3230 fluorescence intensity (a.u.).

Q: “CGTCGGCGGCGGCGGAGGGGAGGACGACGTGGTCGACCTCCGGAGTCACCTAGTGCAG” was tested. Which binding signal did it give?
A: Its binding signal is 3590 fluorescence intensity (a.u.).

Q: How did the binding signal turn out when “CGCGCAGATTTTCCCGGATGGGGCGTGTGCGGCTGCCACGCGGAGTCACCTAGTGCAG” was run?
A: The binding signal was 4420 fluorescence intensity (a.u.).

Q: Which binding signal does the source give for “TTACACCACATTATAAAATCATGACGCAATTAGGCTTAAACGGAGTCACCTAGTGCAG” here?
A: Its binding signal is 4200 fluorescence intensity (a.u.).

Q: With “CTCCAACGAAATCTTCGCCGTGTCAACCCGCGCCTCCGATCGGAGTCACCTAGTGCAG” as the sequence, how does the binding signal read?
A: The binding signal was 4730 fluorescence intensity (a.u.).

Q: How did the binding signal turn out when “ACACATCTAGTTTTACTACACACCAACCCACACGTATAGGCGGAGTCACCTAGTGCAG” was run?
A: Its binding signal is 3610 fluorescence intensity (a.u.).

Q: How did the binding signal turn out when “CTCTCTCTCTTACCTCACGCGCTCCACGCACGCAGAGTCGCGGAGTCACCTAGTGCAG” was run?
A: Its binding signal is 5390 fluorescence intensity (a.u.).

Q: With “GTCTTTCTGTAGAGGACACCAACCATGTGTGATGTGTCCACGGAGTCACCTAGTGCAG” as the sequence, how does the binding signal read?
A: Its binding signal is 5470 fluorescence intensity (a.u.).

Q: For “AGAAATACGTGTTATAGGTCAACTTAAATTTGTTATTCCCCGGAGTCACCTAGTGCAG”, which binding signal is on record?
A: Its binding signal is 3330 fluorescence intensity (a.u.).

Q: Which binding signal does the source give for “TCCCGCCCATGGTCGATCTGCGTCATGTCGCTGTTGACCCCGGAGTCACCTAGTGCAG” here?
A: Its binding signal is 6190 fluorescence intensity (a.u.).

Q: For “CGCGTGCGGTCTCTCCCGCGCGACTGAACACGTGTCGCGCCGGAGTCACCTAGTGCAG”, which binding signal is on record?
A: The binding signal was 5850 fluorescence intensity (a.u.).

Q: For “CCCCTCCACCGCATCCACGCCGCGTCCCGCTTCGCCTCCTCGGAGTCACCTAGTGCAG”, which binding signal is on record?
A: Its binding signal is 3230 fluorescence intensity (a.u.).

Q: Which binding signal does the source give for “ATGCTACACACGTCAGCCGTTTGGCACGACACTGGACGCCCGGAGTCACCTAGTGCAG” here?
A: Its binding signal is 11900 fluorescence intensity (a.u.).

Q: Which binding signal does the source give for “TGAAAAGACTTTAAGTACCACGTCAATGTCACATAGGCTCCGGAGTCACCTAGTGCAG” here?
A: Its binding signal is 7100 fluorescence intensity (a.u.).

Q: How did the binding signal turn out when “GGAGGAATCCGTCTCAAGCAACATAATTACCATCAAGTTGCGGAGTCACCTAGTGCAG” was run?
A: The binding signal was 28800 fluorescence intensity (a.u.).

Q: “TCGCAACCAAGAATCTCCAGTCACGCTAGCCTTTCTGCAACGGAGTCACCTAGTGCAG” was tested. Which binding signal did it give?
A: The binding signal was 4520 fluorescence intensity (a.u.).

Q: Which binding signal does the source give for “TAGATGGGCTTTAATCCCGGCCCACGTACATGTGTAGGCCCGGAGTCACCTAGTGCAG” here?
A: The binding signal was 3350 fluorescence intensity (a.u.).

Q: Which binding signal does the source give for “TGCACCATGTTTCATTGCGTGATGTACATAGCATAATTTTCGGAGTCACCTAGTGCAG” here?
A: Its binding signal is 6820 fluorescence intensity (a.u.).

Q: How did the binding signal turn out when “TGAAGTAGGATGGGCTATGACTTGGGCCCTCAAAGGTTATCGGAGTCACCTAGTGCAG” was run?
A: Its binding signal is 3400 fluorescence intensity (a.u.).

Q: For “TGCTATGCACATGCCACGTTAATGATGACAAAGTCAAAATCGGAGTCACCTAGTGCAG”, which binding signal is on record?
A: Its binding signal is 5080 fluorescence intensity (a.u.).

Q: For “AAAACCGTACCACAAGGGGAAAATGGGAGCGACAGATACCCGGAGTCACCTAGTGCAG”, which binding signal is on record?
A: The binding signal was 3540 fluorescence intensity (a.u.).

Q: How did the binding signal turn out when “CTAATTGTCTAGTGGCCATTGGAACGACATTGCCCTGCATCGGAGTCACCTAGTGCAG” was run?
A: The binding signal was 4400 fluorescence intensity (a.u.).

Q: “ATAATATAAAACGGATGGATCACATGCTATGAACCTATGACGGAGTCACCTAGTGCAG” was tested. Which binding signal did it give?
A: Its binding signal is 51200 fluorescence intensity (a.u.).

Q: Which binding signal does the source give for “TCTCCACTCTCCGATCCCCACGTATGGCGGCGGCGGCGGCCGGAGTCACCTAGTGCAG” here?
A: The binding signal was 3660 fluorescence intensity (a.u.).

Q: For “TTCCTAGTGACCGTCCTCATCGCCTCGCGTGAGTCATCTTCGGAGTCACCTAGTGCAG”, which binding signal is on record?
A: Its binding signal is 27000 fluorescence intensity (a.u.).

Q: Which binding signal does the source give for “CAAGATAGTTAACATGTAATATATCACTTCACAAACATGCCGGAGTCACCTAGTGCAG” here?
A: Its binding signal is 28300 fluorescence intensity (a.u.).

Q: With “CAGACAGACACAGAGAGATCGATATCAACATGCTTTAGTCCGGAGTCACCTAGTGCAG” as the sequence, how does the binding signal read?
A: The binding signal was 3710 fluorescence intensity (a.u.).

Q: How did the binding signal turn out when “ACCGTGCAACCGTCAACCGGAGGAGATCCACGCGTTGGCACGGAGTCACCTAGTGCAG” was run?
A: The binding signal was 4920 fluorescence intensity (a.u.).

Q: With “AAAGGCTGCACACCCTGACACCTCCACTCCTCCATTCCCCCGGAGTCACCTAGTGCAG” as the sequence, how does the binding signal read?
A: The binding signal was 4040 fluorescence intensity (a.u.).

Q: How did the binding signal turn out when “AAATTTAAGAATTTTCGGATGCACTTAAAGAAGGACAAGTCGGAGTCACCTAGTGCAG” was run?
A: The binding signal was 11000 fluorescence intensity (a.u.).

Q: Which binding signal does the source give for “TATGGAGGAGGCTGGCGAGCGGGACGCTGACGAGACGCACCGGAGTCACCTAGTGCAG” here?
A: Its binding signal is 5340 fluorescence intensity (a.u.).

Q: With “TGACAGGTTGATGTGATGGAAAAGGACTGAAGGTTGGATCCGGAGTCACCTAGTGCAG” as the sequence, how does the binding signal read?
A: Its binding signal is 42400 fluorescence intensity (a.u.).

Q: For “TACCATGCACGCGGGAGCACCGTACCAAATGTGCCCACCACGGAGTCACCTAGTGCAG”, which binding signal is on record?
A: The binding signal was 23900 fluorescence intensity (a.u.).

Source: publication PMC7819943, “Rice protein-binding microarrays: a tool to detect cis-acting elements near promoter regions in rice”
